Data published in PubChem BioAssay AID328 (DTP/NCI, 2004).
The list is a part of this screen's results and no random one: it covers a few groups of compounds. Not every dose and run of a compound is shown. T/C is the treated group as % of the vehicle group. Some doses have a count of surviving animals in place of a T/C: the source files T/C as zero there, which appears to mark a toxic dose or a test without result, not a measured value. Some survivor counts are full or nearly so, which does not show that the dose was tolerated: the source hardly ever lists a survival T/C far under the control, and the zero likely stands for such cases as well. Counts of survivors are from the toxicity check (mostly the fifth day) where no day follows; animals may have died later. Schedule codes are those of the source, taken here to give the interval after Q, in days (D) or hours (H), and the number of doses after X. Where survival is the endpoint, this PubChem deposit counts one and a half times the control or more as active, and values a quarter to a half above the control carry no call in these data; other NCI protocols may use other cut-offs. Some T/C values are followed by the survivors on the day toxicity was checked, most often the fifth; without a count or a note in brackets, all were alive then. Some entries were tested several times; the results are listed from low to high. Some entries show no survivor count and are marked so; the dose need not have been tolerated.

Test system: BDF1 mice, P388 leukemia ip, median survival T/C
Assay: NCI In Vivo Anticancer Drug Screen. Data for tumor model P388 Leukemia (intraperitoneal) in B6D2F1 (BDF1) mice
Conditions: T/C endpoint: median survival time, higher T/C = longer survival
Procedure, shortened: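 Antitumour effect was judged in vivo: survival in drug-treated mice, normalised to that of vehicle-dosed controls, gives the reported T/C.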

[1] = dose: 200.0 mg/kg/injection, schedule: Q04DX003 (ip), vehicle: saline

Structure (SMILES): COc1cc2c(c3oc4cccc(O)c4c(=O)c13)[C@@H]1C=CO[C@@H]1O2
- T/C (dose: 3.75 mg/kg/injection, schedule: Q01DX009 (ip), vehicle: Klucel (hydroxypropylcellulose) (HPC)): 134 % of control
- T/C (dose: 7.5 mg/kg/injection, schedule: Q01DX009 (ip), vehicle: Klucel (hydroxypropylcellulose) (HPC)): 117, 142, 162 % of control
- T/C (dose: 15.0 mg/kg/injection, schedule: Q01DX009 (ip), vehicle: Klucel (hydroxypropylcellulose) (HPC)): 141, 211, 240 % of control
- survivor count (dose: 15.0 mg/kg/injection, schedule: Q01DX009 (oral), vehicle: Klucel (hydroxypropylcellulose) (HPC)): 4 of 10
- T/C (dose: 30.0 mg/kg/injection, schedule: Q01DX009 (ip), vehicle: Klucel (hydroxypropylcellulose) (HPC)): 163, 174, 199 % of control [5 of 6 alive]
- survivor count (dose: 30.0 mg/kg/injection, schedule: Q01DX009 (oral), vehicle: Klucel (hydroxypropylcellulose) (HPC)): 1 of 10
- T/C (dose: 60.0 mg/kg/injection, schedule: Q01DX009 (ip), vehicle: Klucel (hydroxypropylcellulose) (HPC)): 147, 163, 185 % of control
- survivor count (dose: 60.0 mg/kg/injection, schedule: Q01DX009 (oral), vehicle: Klucel (hydroxypropylcellulose) (HPC)): 4 of 10
- T/C (dose: 120.0 mg/kg/injection, schedule: Q01DX009 (ip), vehicle: Klucel (hydroxypropylcellulose) (HPC)): 159 % of control [9 of 10 alive]
- survivor count (dose: 120.0 mg/kg/injection, schedule: Q01DX009 (oral), vehicle: Klucel (hydroxypropylcellulose) (HPC)): 3 of 10
- T/C (dose: 240.0 mg/kg/injection, schedule: Q01DX009 (ip), vehicle: Klucel (hydroxypropylcellulose) (HPC)): 95 % of control
- survivor count (dose: 240.0 mg/kg/injection, schedule: Q01DX009 (oral), vehicle: Klucel (hydroxypropylcellulose) (HPC)): 3 of 10
- survivor count (dose: 480.0 mg/kg/injection, schedule: Q01DX009 (oral), vehicle: Klucel (hydroxypropylcellulose) (HPC)): 1 of 10

Structure (SMILES): CCC[As](=O)(O)O
- T/C (dose: 11.0 mg/kg/injection, schedule: Q01DX001 (ip), vehicle: saline): 100 % of control
- T/C (dose: 16.0 mg/kg/injection, schedule: Q01DX001 (ip), vehicle: saline): 100 % of control
- T/C (dose: 25.0 mg/kg/injection, schedule: Q01DX001 (ip), vehicle: Klucel (hydroxypropylcellulose) (HPC)): 131 % of control
- T/C (dose: 25.0 mg/kg/injection, schedule: Q01DX001 (ip), vehicle: saline): 104 % of control
- T/C (dose: 37.5 mg/kg/injection, schedule: Q01DX001 (ip), vehicle: saline): 100 % of control
- T/C (dose: 50.0 mg/kg/injection, schedule: Q01DX001 (ip), vehicle: Klucel (hydroxypropylcellulose) (HPC)): 109 % of control
- T/C (dose: 100.0 mg/kg/injection, schedule: Q01DX001 (ip), vehicle: Klucel (hydroxypropylcellulose) (HPC)): 90 [4 of 6 alive] and 118 % of control
- survivor count (dose: 200.0 mg/kg/injection, schedule: Q01DX001 (ip), vehicle: Klucel (hydroxypropylcellulose) (HPC)): 3 of 6
- survivor count (dose: 400.0 mg/kg/injection, schedule: Q01DX001 (ip), vehicle: Klucel (hydroxypropylcellulose) (HPC)): 1 of 6

Structure (SMILES): O=[N+]([O-])c1cc([N+](=O)[O-])c(NN2CCCCC2)c([N+](=O)[O-])c1
- T/C (dose: 100.0 mg/kg/injection, schedule: Q04DX003 (ip), vehicle: Klucel (hydroxypropylcellulose) (HPC)): 100 % of control [survivor count not shown]
- T/C (dose: 200.0 mg/kg/injection, schedule: Q04DX003 (ip), vehicle: Klucel (hydroxypropylcellulose) (HPC)): 100 % of control [survivor count not shown]
- T/C (dose: 400.0 mg/kg/injection, schedule: Q04DX003 (ip), vehicle: Klucel (hydroxypropylcellulose) (HPC)): 104 % of control [survivor count not shown]

Structure (SMILES): O=C(Nc1ccccc1)N(CCCl)CCCl
- T/C (dose: 50.0 mg/kg/injection, schedule: Q04DX003 (ip), vehicle: saline with Tween-80): 103 % of control [5 of 6 alive]
- T/C (dose: 100.0 mg/kg/injection, schedule: Q04DX003 (ip), vehicle: saline with Tween-80): 88 % of control
- T/C (dose: 200.0 mg/kg/injection, schedule: Q04DX003 (ip), vehicle: saline with Tween-80): 115 % of control

Structure (SMILES): NC1CCCCC1.O=P(O)(NCCCO)N(CCCl)CCCl
- T/C (dose: 25.0 mg/kg/injection, schedule: Q01DX010 (ip), vehicle: saline): 176 % of control
- T/C (dose: 50.0 mg/kg/injection, schedule: Q01DX010 (ip), vehicle: saline): 180 % of control
- T/C (dose: 100.0 mg/kg/injection, schedule: Q01DX010 (ip), vehicle: saline): 230 % of control
- T/C (dose: 200.0 mg/kg/injection, schedule: Q01DX010 (ip), vehicle: saline): 134 % of control
- survivor count (dose: 400.0 mg/kg/injection, schedule: Q01DX010 (ip), vehicle: saline): 1 of 6

Structure (SMILES): C1COP(OCCOP2OCCO2)O1
- T/C (dose: 25.0 mg/kg/injection, schedule: Q01DX009 (ip), vehicle: saline): 95 % of control
- T/C (dose: 50.0 mg/kg/injection, schedule: Q01DX009 (ip), vehicle: saline): 104 % of control [4 of 6 alive]
- T/C (dose: 50.0 mg/kg/injection, schedule: Q04DX003 (ip), vehicle: saline): 95 % of control
- T/C (dose: 100.0 mg/kg/injection, schedule: Q01DX009 (ip), vehicle: saline): 100 % of control [5 of 6 alive]
- T/C (dose: 100.0 mg/kg/injection, schedule: Q04DX003 (ip), vehicle: saline): 100 % of control
- survivor count [1]: 4 of 6

Structure (SMILES): O=C(N(CCCl)CCCl)C(F)(F)F
- T/C (dose: 150.0 mg/kg/injection, schedule: Q04DX003 (ip), vehicle: saline): 120 % of control
- T/C [1]: 143 % of control
- T/C (dose: 400.0 mg/kg/injection, schedule: Q04DX003 (ip), vehicle: saline): 145 % of control
- survivor count (dose: 600.0 mg/kg/injection, schedule: Q04DX003 (ip), vehicle: saline): 3 of 6
